These are yes or no findings as the source states them, for the method shown. Some binding calls cover weakened binding; strength is not graded here.
Target: T1, human TrkB-Fc fusion protein (human, UniProt Q16620 32-430)
T1 construct: Bought from R&D Systems or made in-house; also called HuTrkB; Fc-fused recombinant human TrkB; not shown: Fc part
Assay: SPR (Biacore), dimeric ligand over immobilised TrkB-Fc

Sequences of proteins named here, by UniProt entry; tags and fusion partners are left off. Residues count along the entry.
UniProt Q16620, residues 32-430: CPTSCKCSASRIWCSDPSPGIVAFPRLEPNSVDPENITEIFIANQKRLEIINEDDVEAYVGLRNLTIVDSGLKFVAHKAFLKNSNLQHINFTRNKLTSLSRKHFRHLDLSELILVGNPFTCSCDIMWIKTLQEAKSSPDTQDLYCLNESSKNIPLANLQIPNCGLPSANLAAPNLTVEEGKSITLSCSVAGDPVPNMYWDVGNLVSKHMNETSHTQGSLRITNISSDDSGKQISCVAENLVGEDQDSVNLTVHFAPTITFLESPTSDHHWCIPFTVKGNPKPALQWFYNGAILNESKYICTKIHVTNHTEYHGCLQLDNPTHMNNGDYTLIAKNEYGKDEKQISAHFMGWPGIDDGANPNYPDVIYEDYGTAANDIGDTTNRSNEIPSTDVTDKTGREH

binding: binds
B1: NT4/5 (ligand, UniProt P34130 81-210, looked up)
chain: GVSETAPASRRGELAVCDAVSGWVTDRRTAVDLRGREVEVLGEVPAAGGSPLRQYFFETRCKADNAEEGGPGAGGGGCRGVDRRHWVSECKAKQSYVRALTADAQGRVGWRWIRIDTACVCTLLSRTGRA
